Test results as given in US11407979B2, “Intermittent starvation techniques to prolong functional lifetime of liver cells in culture” (Colorado State University Research Foundation, priority 2017, dated 2022).

Tested on: primary human hepatocytes in micropatterned co-cultures (MPCCs)

CCCCc1oc2ccccc2c1C(=O)c1cc(I)c(OCCN(CC)CC)c(I)c1 [amiodarone]
TC50 values for albumin production, non-starved cells compared with starved cells: similar | TC50 values for urea production, non-starved cells compared with starved cells: similar
